Results reported in publication PMC7199855, “GRAF2, WDR44, and MICAL1 mediate Rab8/10/11–dependent export of E-cadherin, MMP14, and CFTR ΔF508” (The Journal of Cell Biology, 2020).

T1: GST–GRAF1 SH3 (human) (UniProt Q9UNA1)
T1 sequence: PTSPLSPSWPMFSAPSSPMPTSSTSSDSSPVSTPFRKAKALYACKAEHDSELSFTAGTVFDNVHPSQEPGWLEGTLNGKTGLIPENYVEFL

T2: GST–GRAF2 SH3 (human) (UniProt A1A4S6)
T2 sequence: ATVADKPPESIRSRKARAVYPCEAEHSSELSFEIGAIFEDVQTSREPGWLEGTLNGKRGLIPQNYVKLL

B1: endogenous MICAL1 (human cells) (protein, UniProt Q8TDZ2 1-1067)
chain: MASPTSTNPAHAHFESFLQAQLCQDVLSSFQELCGALGLEPGGGLPQYHKIKDQLNYWSAKSLWTKLDKRAGQPVYQQGRACTSTKCLVVGAGPCGLRVAVELALLGARVVLVEKRTKFSRHNVLHLWPFTIHDLRALGAKKFYGRFCTGTLDHISIRQLQLLLLKVALLLGVEIHWGVTFTGLQPPPRKGSGWRAQLQPNPPAQLANYEFDVLISAAGGKFVPEGFKVREMRGKLAIGITANFVNGRTVEETQVPEISGVARIYNQSFFQSLLKATGIDLENIVYYKDDTHYFVMTAKKQCLLRLGVLRQDWPDTNRLLGSANVVPEALQRFTRAAADFATHGKLGKLEFAQDAHGQPDVSAFDFTSMMRAESSARVQEKHGARLLLGLVGDCLVEPFWPLGTGVARGFLAAFDAAWMVKRWAEGAESLEVLAERESLYQLLSQTSPENMHRNVAQYGLDPATRYPNLNLRAVTPNQVRDLYDVLAKEPVQRNNDKTDTGMPATGSAGTQEELLRWCQEQTAGYPGVHVSDLSSSWADGLALCALVYRLQPGLLEPSELQGLGALEATAWALKVAENELGITPVVSAQAVVAGSDPLGLIAYLSHFHSAFKSMAHSPGPVSQASPGTSSAVLFLSKLQRTLQRSRAKENAEDAGGKKLRLEMEAETPSTEVPPDPEPGVPLTPPSQHQEAGAGDLCALCGEHLYVLERLCVNGHFFHRSCFRCHTCEATLWPGGYEQHPGDGHFYCLQHLPQTDHKAEGSDRGPESPELPTPSENSMPPGLSTPTASQEGAGPVPDPSQPTRRQIRLSSPERQRLSSLNLTPDPEMEPPPKPPRSCSALARHALESSFVGWGLPVQSPQALVAMEKEEKESPFSSEEEEEDVPLDSDVEQALQTFAKTSGTMNNYPTWRRTLLRRAKEEEMKRFCKAQTIQRRLNEIEAALRELEAEGVKLELALRRQSSSPEQQKKLWVGQLLQLVDKKNSLVAEEAELMITVQELNLEEKQWQLDQELRGYMNREENLKTAADRQAEDQVLRKLVDLVNQRDALIRFQEERRLSELALGTGAQG
B2: endogenous WDR44 (HeLa) (protein, UniProt Q5JSH3 1-913)
chain: MASESDTEEFYDAPEDVHLGGGYPVGSPGKVGLSTFKETENTAYKVGNESPVQELKQDVSKKIIESIIEESQKVLQLEDDSLDSKGKELSDQATASPIVARTDLSNIPGLLAIDQVLPEESQKAESQNTFEETELELKKCFPSDETCEKPVDETTKLTQTSSTEQLNVLETETEVLNKEAVEVKGGGDVLEPVSSDSLSTKDFAAVEEVAPAKPPRHLTPEPDIVASTKKPVPARPPPPTNFPPPRPPPPSRPAPPPRKRKSELEFETLKTPDIDVPKENITSDSLLTASMASESTVKDSQPSLDLASATSGDKIVTAQENGKAPDGQTVAGEVMGPQRPRSNSGRELTDEEILASVMIKNLDTGEEIPLSLAEEKLPTGINPLTLHIMRRTKEYVSNDAAQSDDEEKLQSQPTDTDGGRLKQKTTQLKKFLGKSVKRAKHLAEEYGERAINKVKSVRDEVFHTDQDDPSSSDDEGMPYTRPVKFKAAHGFKGPYDFDQIKVVQDLSGEHMGAVWTMKFSHCGRLLASAGQDNVVRIWALKNAFDYFNNMRMKYNTEGRVSPSPSQESLSSSKSDTDTGVCSGTDEDPDDKNAPFRQRPFCKYKGHTADLLDLSWSKNYFLLSSSMDKTVRLWHISRRECLCCFQHIDFVTAIAFHPRDDRYFLSGSLDGKLRLWNIPDKKVALWNEVDGQTKLITAANFCQNGKYAVIGTYDGRCIFYDTEHLKYHTQIHVRSTRGRNKVGRKITGIEPLPGENKILVTSNDSRIRLYDLRDLSLSMKYKGYVNSSSQIKASFSHDFTYLVSGSEDKYVYIWSTYHDLSKFTSVRRDRNDFWEGIKAHNAVVTSAIFAPNPSLMLSLDVQSEKSEGNEKSEDAEVLDATPSGIMKTDNTEVLLSADFTGAIKVFVNKRKNVS
B3: MICAL1 of rat brain lysate (protein, UniProt D3ZBP4 1-1047)
chain: MASPTSTNPAHDHFETFVQAQLCQDVLSSFQGLCRALGVESGGGLPQYHKIKAQLNYWSAKSLWAKLDKRASQPAYQQGQACTNTKCLVVGAGPCGLRAAVELALLGARVVLVEKRTKFSRHNVLHLWPFTIHDLRALGAKKFYGRFCTGTLDHISIRQLQLLLLKVALLLGVEIHWGFTFTGLQPPPKKGSGWRARIQPSPPAQLASYEFDVLISAGGGKFVPEGFTIREMRGKLAIGITANFVNGRTVEETQVPEISGVARIYNQKFFQSLLKATGIDLENIVYYKDDTHYFVMTAKKQCLLRLGVLRQDLPETDQLLGKANVVPEALQQFARAAADFATQGKLGKLEFAQDARGRPDVAAFDFTSMMRSESSARIQEKHGARLLLGLVGDCLVEPFWPLGTGVARGFLAAFDAAWMVKRWAEGTGPLELLAERESLYQLLSQTSPENMHRNVAQYGLDPATRYPNLNLRAVTPNQVQDLYDIMDKEHARKKSDETDARKTTTGSAGTEELLHWCQEQTAGFPGVSVTDFSSSWADGRALCALVHRLQPGLLEPSELQGMSALEATAWALRVAEYELGIIPVLSAQAVVAGSDPLGLIAYLSHFHSAFKNTPHSSGLVSQPHGTPSAILFLGKLQRSLQRTRTKVEEETPCTEEPPVSEPSVPPALPSEHEEAGAEDVCELCGKRLYILERFCVDGHFFHRGCFCCRTCEATLRPGGYGQYPGDGYFYCLQHLPQEDQKEADNNGSPENQELPTPGDSTTQSGPSSPVPPVTEASPVPSPSQPARRLIRLSSVERLRLSSLNIIPDSGVEPPPKPPRSCLDLAQESLKSSFMGWGVLRAPQVPEAIEKGEEEEEEEEEEEEEEEELPPPLALEVEQSLLTLAKNSGDMTKYPTWRRTLMRRAKEEEMKRFCKAQAIQRRLNEIEAAMRELETEGMKLEVALRKESSSPEKQKKLWLEQLLQLIQKKNSLVTEEAELMITVQELDLEEKQRQLDHEFRGINREETLKTQADRLSEDRVLRKLLDVVNQRDALIQFQEERRLREMPV
B4: WDR44 of rat brain lysate (protein, UniProt Q9R037 1-908)
chain: MMPLKMCTWGGSYPVGSPGKVGLLSFKETKNTGNKAGNESPVQELRQDVSKKIIECIIEESQKVLQLEDDSLDSKGKGLSDQATASHSVAGTEFSNIPGLLAIQHELQQGSRKADSQNAAEETELETQKCFPSDNNCEKSEKTEDETNNLTEVSSADQLDASKLETEILNKEAVEVKEGDVVNPASSDALSTKDFAAVEEVAPAKPPRHLTPEPDIVASTKKPVPARPPPPTNFPPPRPPPPSRPAPPPRKKKSDLEFEALKTPDLDVPKDNIASDSLLTTNMASESTVRDSLPSLDLASATSGDKIVTAQENGKAPDVQTVAGEVMGPQRPRSNSGRELTDEEILASVMIKNLDTGEEIPLSLAEEKLPTGINPLTPLTLHIMRRTKEYVSNDATQSDDEEKLQSQQTDTDGGRLKQKTTQLKKFLGKSVKRAKHLAEEYGERAINKVKSVRDEVFHTDQDDPSSSDDEGMPYTRPVKFKAAHGFKGPYDFDQIKVVQDLSGEHMGAVWTMKFSHCGRLLASAGQDNIVRIWALKNAFDYFNNMRMKYNTEGRVSPSPSQESLSSSKSDTDMGVCSGTDEDPDDKNAPFRQRPFCKYKGHTADLLDLSWSKNYFLLSSSMDKTVRLWHISRRECLCCFQHIDFVTAIAFHPRDDRYFLSGSLDGKLRLWNIPDKKVALWNEVDGQTKLITAANFCQNGKYAVIGTYDGRCIFYDTEHLKYHTQIHVRSTRGRNKVGRKITGIEPLPGENKILVTSNDSRIRLYDLRDLSLSMKYKGYVNSSSQIKASFSHDFTYLVSGSEDKYVYIWSTYHDLSKFTSVRRDRNDFWEGIKAHNAVVTSAIFAPNPSLMLSLDVQSEKLEGIDKYEDAEVLDNTSTGIVKTDNTEVLLSADFTGAQCFYVKNSFLYP

Each binder was assayed against T1, GST–GRAF1 SH3 (human) (assay: affinity purification with mass spectrometry; GST-SH3 on glutathione sepharose beads with ~7 mg rat brain or HeLa lysate, 30 min 4°C; 20 mM Hepes pH 7.4, 150 mM NaCl, 2 mM EDTA, 1% IGEPAL CA-630, 1 mM DTT; Thrombin elution, Coomassie bands, LC-MS/MS; only the target purified).

binding, binds:
B1
B2
B3
B4

The binders below were run against T2, GST–GRAF2 SH3 (human) in the same assay as above.

binding, binds:
B2
B3
B4

Results are given in words; binding and its absence hold for the method and conditions named. Binding seen in cells or lysates may run through a third protein. These calls come from enrichment with a bait or labelling near it, and not all partners need be listed. Sequences can lack the tags named with a protein.
